Binding data for six molecules are collected here from patent US20090035322A1.

Sequences of proteins named here, by UniProt entry; tags and fusion partners are left off. A change or cut given only in a name is not applied to a line headed by its entry.
UniProt P11836: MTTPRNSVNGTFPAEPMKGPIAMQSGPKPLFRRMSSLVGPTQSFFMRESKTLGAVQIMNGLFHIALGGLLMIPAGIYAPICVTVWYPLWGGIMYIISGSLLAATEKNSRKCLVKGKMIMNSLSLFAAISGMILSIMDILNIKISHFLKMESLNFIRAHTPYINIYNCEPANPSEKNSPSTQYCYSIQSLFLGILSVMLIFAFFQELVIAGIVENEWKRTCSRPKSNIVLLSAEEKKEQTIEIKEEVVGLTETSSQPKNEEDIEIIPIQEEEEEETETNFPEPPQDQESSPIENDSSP

The target in this assay is human CD20 (human) (UniProt P11836). Put plainly: flow cytometry, hCD20-transfected MG87 cells. (In flow cytometry, cells or beads pass a laser one at a time.)

These are yes or no findings as the source states them, for the method shown. Some results given as binding are weak or reduced against the parent protein; the word gives no strength.

B1: 2C11-4 (antibody, V domains shown)
VH: EVQLVESGGGLVQPGRSLRLSCAASGFTFRDYAMHWVRQGPGKGLEWVSGISWNTDYIGYADSVKGRFTISRDNAKNSLYLQMNSLRPEDTALYYCAKDARYGRDNYYGMDVWGQGTTVTVSS
VL: EIVLTQSPATLSLSPGERATLSCRASQSVSRYLAWYQQKPGQAPRLLIHDASNRATGIPARFSGSGSGTDFTLTITSLEPEDFVVYYCQQRSDWPITFGQGTRLEIK
In the case of B1, the binding entry is “binds”.

B2: 9H4-12 (antibody, V domains shown)
VH: EVQLVESGGGLVQPGRSLRLSCAASGFTFDDYAMHWVRQVPGKGLEWVSGISWNSGSIGYADSVKGRFTISRDNAKNSLYLQMNSLRAEDTALYYCAKDMGYGNYYHYGMDVWGQGTTVTVSS
VL: DIVLTQSPATLSLSPGERATLSCRASQSVSSYLAWYQQKPGQAPRLLICDASHRATRIPARFSGSGSGTDFTLTISSLEPEDFAVYYCQQRSNWPITFGQGTRLEIK
As for B2, the binding entry was “binds”.

B3: 6B9-4 (antibody, V domains shown)
VH: EEQLVESGGDLVQPGRSLRLSCAASGFTFHDYTMHWVRQAPGKGLEWVSGISWNSGSIGYADSVKGRFTISRDNAKNSLYLQMNSLRIEDTALYYCAKDPSYGSGSYYYYYGMDVWGQGTTVTVSS
VL: EIVLTQSPATLSLSPGERATLSCRASQSVSSYLVWYQQRPGQAPRLLIYEASNRATGIPARFSGSGSGTDFTLTISSLESEDFAVYYCQQRSNWPLTFGGGTKVEIK
Turning to B3, the binding result was “binds”.

B4: 10E3-17 (antibody, V domains shown)
VH: EVQLVESGGGLVQPGRSLRLSCAASGFTFRDYAMHWVRQVPGKGLEWVSGISWNRGTIGYADSVKGRFTISRDNAKNSLFLQMNSLRADDTALYYCAKDHYYGSGSPYGMDVWGQGTTVTVSS
VL: EIVLTQSPATLALSPGERATLSCRASQSVSKYLAWYQQKPGQAPRLLIYDASKRVTGIPGRLSGSGSGTDFTLTISSLEPEDFALYYCQQSSNWPITFGQGTRVEIK
In the case of B4, the binding result is given as “binds”.

B5: 3H7-6 (antibody, V domains shown)
VH: EVQLVESGGGLVQPGRSLRLSCAASGFTFYDYAMHWVRQAPGKGLEWVSGISWNSGYIGYADSVKGRFTISRDNAKNSLYLQMNSLRAEDTALYYCAKDNSYGKFYYGLDVWGQGTTVTVSS
VL: EIVMTQSPATLSVSPGERTTLSCRASQSVSSNLAWYLQKPGQAPRLLIYGASTRATGIPARFSGSGSGTEFILTISSLQSEDFAVYYCQQYNNWPITFGQGTRLEIK
Consider B5, for which the binding result was “binds”.

B6: 9C11-14 (antibody, V domains shown)
VH: QVQLVESGGDSVKPGGSLRLSCAASGFTFSDSYMTWIRQAPGKGLEWVSFISSSGSTIYYADSVKGRFTISRDNVKKSLYLQMNRLRAEDTAVYYCAREEPGNYVYYGMDVWGQGTTVTVSS
VL: EIVVTQSPATLSLSPGERATLSCRTSQTTTSYLAWYRQKPGQAPRLLIYDASNRAAGIPARFSGSGSGTDFTLTINSLEPEDFAVYYCQLRTNWITFGQGTRLEIK
As to B6, the binding entry is reported as “binds”.
